Source: article PMC9816059

T1: CST1-C truncation (amino acids 74-141), Myc-tagged (UniProt P01037)
T1 sequence: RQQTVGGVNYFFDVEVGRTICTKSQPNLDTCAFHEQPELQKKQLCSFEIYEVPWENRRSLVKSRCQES

T2: Myc-tagged full-length CST1 (CST1-FL-Myc) (UniProt P01037)
T2 sequence: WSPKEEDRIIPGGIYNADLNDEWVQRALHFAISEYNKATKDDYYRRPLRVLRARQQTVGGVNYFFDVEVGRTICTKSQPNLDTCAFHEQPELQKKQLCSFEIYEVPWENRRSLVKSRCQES

B1: Myc-tagged full-length CST1 (CST1-FL-Myc) (protein, UniProt P01037 21-141)
chain: WSPKEEDRIIPGGIYNADLNDEWVQRALHFAISEYNKATKDDYYRRPLRVLRARQQTVGGVNYFFDVEVGRTICTKSQPNLDTCAFHEQPELQKKQLCSFEIYEVPWENRRSLVKSRCQES
B2: Flag-tagged OTUD5 (enzyme, UniProt Q96G74 1-571)
chain: MTILPKKKPPPPDADPANEPPPPGPMPPAPRRGGGVGVGGGGTGVGGGDRDRDSGVVGARPRASPPPQGPLPGPPGALHRWALAVPPGAVAGPRPQQASPPPCGGPGGPGGGPGDALGAAAAGVGAAGVVVGVGGAVGVGGCCSGPGHSKRRRQAPGVGAVGGGSPEREEVGAGYNSEDEYEAAAARIEAMDPATVEQQEHWFEKALRDKKGFIIKQMKEDGACLFRAVADQVYGDQDMHEVVRKHCMDYLMKNADYFSNYVTEDFTTYINRKRKNNCHGNHIEMQAMAEMYNRPVEVYQYSTGTSAVEPINTFHGIHQNEDEPIRVSYHRNIHYNSVVNPNKATIGVGLGLPSFKPGFAEQSLMKNAIKTSEESWIEQQMLEDKKRATDWEATNEAIEEQVARESYLQWLRDQEKQARQVRGPSQPRKASATCSSATAAASSGLEEWTSRSPRQRSSASSPEHPELHAELGMKPPSPGTVLALAKPPSPCAPGTSSQFSAGADRATSPLVSLYPALECRALIQQMSPSAFGLNDWDDDEILASVLAVSQQEYLDSMKKNKVHRDPPPDKS

Assays:
[1] = target: T1, CST1-C truncation (amino acids 74-141), Myc-tagged; test: co-IP; HEK293T cells transfected with CST1-FL/N/C-Myc and OTUB1-Flag, GPX4-HA plasmids; Myc protein immunoprecipitated; Western blot, 15% SDS-PAGE
[2] = target: T2, Myc-tagged full-length CST1 (CST1-FL-Myc); test: as above
[3] = target: HA-tagged GPX4; test: co-IP; HEK293T cells transfected with HA-GPX4 and Flag-tagged OTUB1 or OTUD5, and/or Myc-tagged CST1; Western blot of Flag, HA and Myc after IP; precipitated protein not told

| Molecule | binding [1] | binding [2] | binding [3] |
| --- | --- | --- | --- |
| HA-tagged GPX4 (enzyme) | binds | binds |  |
| B1 |  |  | binds |
| B2 |  |  | no binding |

These are yes or no findings as the source states them, for the method shown. Binding seen in cells or lysates may run through a third protein. A result given as binding can be weak or reduced; the word gives no strength. Sequences can lack the tags named with a protein.
